Reference: PubChem BioAssay AID248 (DTP/NCI, 2004)
The list shows only some results of the screen, not a fair sample: it gathers tests that were run many times, whatever their T/C, doses with no T/C, and many T/C values between a quarter and a half above the control. Further doses and runs are listed elsewhere. T/C gives the treated animals as a percentage of the vehicle group. Some doses have a count of surviving animals in place of a T/C: the source files T/C as zero there, which appears to mark a toxic dose or a test without result, not a measured value. Survivors were counted at the toxicity check, usually on the fifth day, unless a day is given; later deaths do not show. Schedule codes are those of the source, taken here to give the interval after Q, in days (D) or hours (H), and the number of doses after X. Some molecules as drawn cover several salts, stereoisomers or complexes of the source; a dose is that of the sample tested. Some entries hold several experiments; their values stand side by side, smallest first. For survival time, this PubChem deposit counts one and a half times the control or more as active, and values a quarter to a half above the control carry no call in these data; other NCI protocols may use other cut-offs. Some T/C values carry the count of animals alive at the toxicity check (mostly the fifth day); without a count, all were alive then. Marks such as (2×) give the number of equal values in this list.

System: L1210 leukemia ip in BDF1 mice, survival T/C
Assay: NCI In Vivo Anticancer Drug Screen. Data for tumor model L1210 Leukemia (intraperitoneal) in B6D2F1 (BDF1) mice
Details: higher T/C = longer survival

Structure (SMILES): N=c1ccn2c(n1)OC1C(O)C(CO)OC12 (configuration not stated)
- T/C (T/C endpoint: mean survival time, dose: 1.57 mg/kg/injection, schedule: Q03HX024 (ip), vehicle: water): 126 % of control
- T/C (T/C endpoint: mean survival time, dose: 50.0 mg/kg/injection, schedule: Q01DX005 (ip), vehicle: saline): 121, 134, 135, 137, 138, 139, 141, 144 (4×), 145, 151 (2×), 154, 156, 157 (3×), 160 (2×), 161, 163, 164, 165, 185 % of control
- T/C (T/C endpoint: mean survival time, dose: 50.0 mg/kg/injection, schedule: Q01DX009 (ip), vehicle: saline): 145 % of control
- T/C (T/C endpoint: mean survival time, dose: 55.0 mg/kg/injection, schedule: Q04DX003 (ip), vehicle: saline): 136 % of control
- T/C (T/C endpoint: mean survival time, dose: 87.0 mg/kg/injection, schedule: Q04DX003 (ip), vehicle: saline, evaluated on day 21): 137 % of control
- T/C (T/C endpoint: mean survival time, dose: 87.0 mg/kg/injection, schedule: Q04DX003 (ip), vehicle: saline, evaluated on day 30): 147 % of control
- T/C (T/C endpoint: mean survival time, dose: 100.0 mg/kg/injection, schedule: Q01DX005 (ip), vehicle: saline): 125, 137, 141, 146, 150, 153, 155 (2×), 156, 157, 158, 159 (2×), 162 (3×), 163, 167, 168, 177, 178 (2×), 181, 183, 187 [5 of 6 alive], 189 (2×), 200 % of control
- T/C (T/C endpoint: mean survival time, dose: 100.0 mg/kg/injection, schedule: Q01DX009 (ip), vehicle: saline, evaluated on day 9): 161 % of control
- T/C (T/C endpoint: mean survival time, dose: 100.0 mg/kg/injection, schedule: Q01DX009 (ip), vehicle: saline, evaluated on day 30): 168, 177, 177 [8 of 10 alive], 218 % of control
- T/C (T/C endpoint: mean survival time, dose: 200.0 mg/kg/injection, schedule: Q01DX001 (ip), vehicle: water): 132 and 133 % of control
- T/C (T/C endpoint: mean survival time, dose: 200.0 mg/kg/injection, schedule: Q01DX005 (ip), vehicle: saline): 156, 157, 166 [5 of 6 alive], 170, 175 (2×), 176, 178 (3×), 180, 181, 182, 183, 187, 188, 189 (2×), 191 (3×), 191 [5 of 6 alive], 193, 203, 208, 219, 261 % of control
- T/C (T/C endpoint: mean survival time, dose: 200.0 mg/kg/injection, schedule: Q01DX009 (ip), vehicle: saline, evaluated on day 9): 169 % of control
- T/C (T/C endpoint: mean survival time, dose: 200.0 mg/kg/injection, schedule: Q01DX009 (ip), vehicle: saline, evaluated on day 30): 188, 189, 210, 249 % of control
- T/C (T/C endpoint: mean survival time, dose: 200.0 mg/kg/injection, schedule: Q04DX003 (ip), vehicle: saline): 134 % of control
- T/C (T/C endpoint: mean survival time, dose: 267.0 mg/kg/injection, schedule: Q01DX009 (ip), vehicle: saline): 130 % of control [5 of 6 alive]
- T/C (T/C endpoint: mean survival time, dose: 400.0 mg/kg/injection, schedule: Q01DX001 (ip), vehicle: saline): 126, 131, 144 % of control
- T/C (T/C endpoint: mean survival time, dose: 400.0 mg/kg/injection, schedule: Q01DX001 (ip), vehicle: water): 138 [9 of 10 alive] and 140 % of control [8 of 10 alive]
- T/C (T/C endpoint: mean survival time, dose: 400.0 mg/kg/injection, schedule: Q01DX005 (ip), vehicle: saline): 183, 185 [5 of 6 alive], 188, 191, 194 (2×), 203, 207, 208, 214, 215, 216, 221, 223 (2×), 224, 229, 241, 242, 244, 245, 268, 272, 298, 316 % of control [5 of 6 alive]
- T/C (T/C endpoint: mean survival time, dose: 400.0 mg/kg/injection, schedule: Q01DX009 (ip), vehicle: saline): 144 % of control
- T/C (T/C endpoint: mean survival time, dose: 800.0 mg/kg/injection, schedule: Q01DX001 (ip), vehicle: saline): 131, 139, 148 % of control
- T/C (T/C endpoint: mean survival time, dose: 800.0 mg/kg/injection, schedule: Q01DX001 (ip), vehicle: water): 134 % of control [9 of 10 alive]
- survivor count (T/C endpoint: mean survival time, dose: 800.0 mg/kg/injection, schedule: Q01DX009 (ip), vehicle: water): 5 of 10
- T/C (T/C endpoint: mean survival time, dose: 1200.0 mg/kg/injection, schedule: Q01DX001 (ip), vehicle: saline): 143 [5 of 6 alive] and 149 % of control
- survivor count (T/C endpoint: mean survival time, dose: 1200.0 mg/kg/injection, schedule: Q01DX001 (ip), vehicle: water): 3 of 10 and 4 of 10
- survivor count (T/C endpoint: mean survival time, dose: 1600.0 mg/kg/injection, schedule: Q01DX001 (ip), vehicle: water): 1 of 10 and 3 of 10
- survivor count (T/C endpoint: mean survival time, dose: 2000.0 mg/kg/injection, schedule: Q01DX001 (ip), vehicle: water): 3 of 10 and 4 of 10
- T/C (T/C endpoint: median survival time, dose: 25.0 mg/kg/injection, schedule: Q03HX008 (oral), vehicle: water): 133 % of control
- T/C (T/C endpoint: median survival time, dose: 37.5 mg/kg/injection, schedule: Q01DX009 (ip), vehicle: water, evaluated on day 5): 190 % of control
- T/C (T/C endpoint: median survival time, dose: 37.5 mg/kg/injection, schedule: Q01DX009 (ip), vehicle: water, evaluated on day 30): 190 % of control
- T/C (T/C endpoint: median survival time, dose: 37.5 mg/kg/injection, schedule: Q01DX009 (ip), vehicle: water, evaluated on day 60): 150 and 188 % of control
- T/C (T/C endpoint: median survival time, dose: 39.0 mg/kg/injection, schedule: Q01DX008 (ip), vehicle: water, evaluated on day 7): 127 % of control
- T/C (T/C endpoint: median survival time, dose: 39.0 mg/kg/injection, schedule: Q01DX008 (ip), vehicle: water, evaluated on day 60): 127 % of control
- T/C (T/C endpoint: median survival time, dose: 39.0 mg/kg/injection, schedule: Q01DX009 (ip), vehicle: water, evaluated on day 5): 169 and 182 % of control
- T/C (T/C endpoint: median survival time, dose: 39.0 mg/kg/injection, schedule: Q01DX009 (ip), vehicle: water, evaluated on day 7): 191 % of control
- T/C (T/C endpoint: median survival time, dose: 39.0 mg/kg/injection, schedule: Q01DX009 (ip), vehicle: water, evaluated on day 31): 191 % of control
- T/C (T/C endpoint: median survival time, dose: 39.0 mg/kg/injection, schedule: Q01DX009 (ip), vehicle: water, evaluated on day 60): 172 and 180 % of control
- T/C (T/C endpoint: median survival time, dose: 50.0 mg/kg/injection, schedule: Q01DX009 (oral), vehicle: water): 133 % of control
- T/C (T/C endpoint: median survival time, dose: 50.0 mg/kg/injection, schedule: Q03HX008 (ip), vehicle: water): 127 % of control
- T/C (T/C endpoint: median survival time, dose: 50.0 mg/kg/injection, schedule: Q03HX008 (oral), vehicle: water): 144 % of control
- T/C (T/C endpoint: median survival time, dose: 65.0 mg/kg/injection, schedule: Q01DX008 (ip), vehicle: water, evaluated on day 7): 129 % of control
- T/C (T/C endpoint: median survival time, dose: 65.0 mg/kg/injection, schedule: Q01DX008 (ip), vehicle: water, evaluated on day 60): 129 % of control [7 of 8 alive]
- T/C (T/C endpoint: median survival time, dose: 65.0 mg/kg/injection, schedule: Q01DX009 (ip), vehicle: water, evaluated on day 5): 186 and 187 % of control
- T/C (T/C endpoint: median survival time, dose: 65.0 mg/kg/injection, schedule: Q01DX009 (ip), vehicle: water, evaluated on day 7): 180 and 188 % of control
- T/C (T/C endpoint: median survival time, dose: 65.0 mg/kg/injection, schedule: Q01DX009 (ip), vehicle: water, evaluated on day 31): 188 % of control
- T/C (T/C endpoint: median survival time, dose: 65.0 mg/kg/injection, schedule: Q01DX009 (ip), vehicle: water, evaluated on day 60): 180 [7 of 8 alive], 185 [7 of 8 alive], 186 % of control
- T/C (T/C endpoint: median survival time, dose: 75.0 mg/kg/injection, schedule: Q01DX009 (ip), vehicle: water, evaluated on day 5): 201 % of control
- T/C (T/C endpoint: median survival time, dose: 75.0 mg/kg/injection, schedule: Q01DX009 (ip), vehicle: water, evaluated on day 30): 201 % of control
- T/C (T/C endpoint: median survival time, dose: 75.0 mg/kg/injection, schedule: Q01DX009 (ip), vehicle: water, evaluated on day 54): 200 % of control
- T/C (T/C endpoint: median survival time, dose: 75.0 mg/kg/injection, schedule: Q01DX009 (ip), vehicle: water, evaluated on day 60): 185 and 211 % of control
- T/C (T/C endpoint: median survival time, dose: 80.0 mg/kg/injection, schedule: Q01DX001 (ip), vehicle: water): 138 % of control
- T/C (T/C endpoint: median survival time, dose: 100.0 mg/kg/injection, schedule: Q01DX005 (ip), vehicle: water): 140 % of control
- T/C (T/C endpoint: median survival time, dose: 100.0 mg/kg/injection, schedule: Q01DX009 (ip), vehicle: water, evaluated on day 5): 215 % of control
- T/C (T/C endpoint: median survival time, dose: 100.0 mg/kg/injection, schedule: Q01DX009 (ip), vehicle: water, evaluated on day 30): 216 % of control
- T/C (T/C endpoint: median survival time, dose: 100.0 mg/kg/injection, schedule: Q01DX009 (ip), vehicle: water, evaluated on day 35): 200 % of control
- T/C (T/C endpoint: median survival time, dose: 100.0 mg/kg/injection, schedule: Q01DX009 (ip), vehicle: water, evaluated on day 45): 190 % of control
- T/C (T/C endpoint: median survival time, dose: 100.0 mg/kg/injection, schedule: Q01DX009 (ip), vehicle: water, evaluated on day 60): 194, 215 (2×), 231 % of control
- T/C (T/C endpoint: median survival time, dose: 100.0 mg/kg/injection, schedule: Q03HX008 (oral), vehicle: water): 127 % of control [6 of 8 alive]
- T/C (T/C endpoint: median survival time, dose: 100.0 mg/kg/injection, schedule: Q04DX003 (ip), vehicle: water): 135 % of control
- T/C (T/C endpoint: median survival time, dose: 108.0 mg/kg/injection, schedule: Q01DX009 (ip), vehicle: water, evaluated on day 5): 200 and 203 % of control
- T/C (T/C endpoint: median survival time, dose: 108.0 mg/kg/injection, schedule: Q01DX009 (ip), vehicle: water, evaluated on day 7): 192 and 208 % of control
- T/C (T/C endpoint: median survival time, dose: 108.0 mg/kg/injection, schedule: Q01DX009 (ip), vehicle: water, evaluated on day 27): 244 % of control
- T/C (T/C endpoint: median survival time, dose: 108.0 mg/kg/injection, schedule: Q01DX009 (ip), vehicle: water, evaluated on day 30): 195 % of control [7 of 8 alive]
- T/C (T/C endpoint: median survival time, dose: 108.0 mg/kg/injection, schedule: Q01DX009 (ip), vehicle: water, evaluated on day 31): 208 % of control
- T/C (T/C endpoint: median survival time, dose: 108.0 mg/kg/injection, schedule: Q01DX009 (ip), vehicle: water, evaluated on day 33): 233 % of control
- T/C (T/C endpoint: median survival time, dose: 108.0 mg/kg/injection, schedule: Q01DX009 (ip), vehicle: water, evaluated on day 60): 192 and 200 % of control (2×)
- T/C (T/C endpoint: median survival time, dose: 150.0 mg/kg/injection, schedule: Q01DX009 (ip), vehicle: water, evaluated on day 5): 237 % of control
- T/C (T/C endpoint: median survival time, dose: 150.0 mg/kg/injection, schedule: Q01DX009 (ip), vehicle: water, evaluated on day 30): 237 % of control
